Data published in PMC5931457.
Results are given in words; binding and its absence hold for the method and conditions named. For part of these data: In cells and extracts the contact can be indirect. Some binding calls cover weakened binding; strength is not graded here. For part of these data: Where a sequence is shown, tags or fusion partners need not be part of it.

T1: A20 fused to the GAL4 DNA-binding domain (human) (UniProt P21580)
T1 sequence: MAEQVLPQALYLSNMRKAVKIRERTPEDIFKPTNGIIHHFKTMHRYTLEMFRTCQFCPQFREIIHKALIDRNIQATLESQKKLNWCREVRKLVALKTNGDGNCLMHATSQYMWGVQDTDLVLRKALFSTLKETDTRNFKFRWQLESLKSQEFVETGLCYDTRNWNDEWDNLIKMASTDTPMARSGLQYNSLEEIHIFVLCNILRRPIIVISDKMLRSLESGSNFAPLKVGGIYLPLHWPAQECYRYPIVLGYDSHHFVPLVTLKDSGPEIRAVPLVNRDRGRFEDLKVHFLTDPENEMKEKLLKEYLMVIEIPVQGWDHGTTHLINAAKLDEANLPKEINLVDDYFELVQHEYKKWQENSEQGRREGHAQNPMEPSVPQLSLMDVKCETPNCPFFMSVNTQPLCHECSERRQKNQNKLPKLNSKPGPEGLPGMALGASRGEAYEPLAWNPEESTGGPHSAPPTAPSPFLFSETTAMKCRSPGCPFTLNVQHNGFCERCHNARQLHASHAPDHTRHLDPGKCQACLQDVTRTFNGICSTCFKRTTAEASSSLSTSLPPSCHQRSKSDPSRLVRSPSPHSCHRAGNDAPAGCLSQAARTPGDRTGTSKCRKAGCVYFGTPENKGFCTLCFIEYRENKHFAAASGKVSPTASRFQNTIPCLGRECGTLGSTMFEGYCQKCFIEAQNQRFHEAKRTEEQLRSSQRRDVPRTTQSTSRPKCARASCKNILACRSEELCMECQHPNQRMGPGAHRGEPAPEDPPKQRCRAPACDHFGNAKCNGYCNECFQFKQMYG

T2: endogenous A20 (human (endogenous in RKO)) (UniProt P21580)
T2 sequence: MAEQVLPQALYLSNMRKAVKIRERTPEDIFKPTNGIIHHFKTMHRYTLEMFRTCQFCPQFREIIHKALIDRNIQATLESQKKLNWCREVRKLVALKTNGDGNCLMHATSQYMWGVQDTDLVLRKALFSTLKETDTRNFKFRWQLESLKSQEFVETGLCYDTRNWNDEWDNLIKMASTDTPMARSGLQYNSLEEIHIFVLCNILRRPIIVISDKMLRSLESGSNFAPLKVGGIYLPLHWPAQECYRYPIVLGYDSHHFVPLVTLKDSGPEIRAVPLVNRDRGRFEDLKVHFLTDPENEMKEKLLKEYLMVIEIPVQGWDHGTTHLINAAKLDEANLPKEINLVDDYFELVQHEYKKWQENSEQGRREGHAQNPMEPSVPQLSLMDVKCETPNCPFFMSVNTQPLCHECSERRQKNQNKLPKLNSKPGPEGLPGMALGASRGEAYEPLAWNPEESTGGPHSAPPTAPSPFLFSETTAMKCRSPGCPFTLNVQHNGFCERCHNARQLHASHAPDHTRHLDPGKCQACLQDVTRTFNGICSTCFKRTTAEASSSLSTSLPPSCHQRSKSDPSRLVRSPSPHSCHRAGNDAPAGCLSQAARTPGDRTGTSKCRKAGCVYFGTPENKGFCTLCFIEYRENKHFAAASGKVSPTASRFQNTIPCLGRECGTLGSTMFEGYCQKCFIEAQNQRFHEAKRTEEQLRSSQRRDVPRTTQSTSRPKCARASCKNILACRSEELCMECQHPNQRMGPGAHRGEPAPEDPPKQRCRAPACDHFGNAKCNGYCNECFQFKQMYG

B1: RIPK4 fused to the VP16-transactivation domain (protein, UniProt P57078 1-832)
chain: MEGDGGTPWALALLRTFDAGEFTGWEKVGSGGFGQVYKVRHVHWKTWLAIKCSPSLHVDDRERMELLEEAKKMEMAKFRYILPVYGICREPVGLVMEYMETGSLEKLLASEPLPWDLRFRIIHETAVGMNFLHCMAPPLLHLDLKPANILLDAHYHVKISDFGLAKCNGLSHSHDLSMDGLFGTIAYLPPERIREKSRLFDTKHDVYSFAIVIWGVLTQKKPFADEKNILHIMVKVVKGHRPELPPVCRARPRACSHLIRLMQRCWQGDPRVRPTFQGNGLNGELIRQVLAALLPVTGRWRSPGEGFRLESEVIIRVTCPLSSPQEITSETEDLCEKPDDEVKETAHDLDVKSPPEPRSEVVPARLKRASAPTFDNDYSLSELLSQLDSGVSQAVEGPEELSRSSSESKLPSSGSGKRLSGVSSVDSAFSSRGSLSLSFEREPSTSDLGTTDVQKKKLVDAIVSGDTSKLMKILQPQDVDLALDSGASLLHLAVEAGQEECAKWLLLNNANPNLSNRRGSTPLHMAVERRVRGVVELLLARKISVNAKDEDQWTALHFAAQNGDESSTRLLLEKNASVNEVDFEGRTPMHVACQHGQENIVRILLRRGVDVSLQGKDAWLPLHYAAWQGHLPIVKLLAKQPGVSVNAQTLDGRTPLHLAAQRGHYRVARILIDLCSDVNVCSLLAQTPLHVAAETGHTSTARLLLHRGAGKEAMTSDGYTALHLAARNGHLATVKLLVEEKADVLARGPLNQTALHLAAAHGHSEVVEELVSADVIDLFDEQGLSALHLAAQGRHAQTVETLLRHGAHINLQSLKFQGGHGPAATLLRRSKT
B2: endogenous RIPK4 (protein, UniProt P57078 1-832)
chain: MEGDGGTPWALALLRTFDAGEFTGWEKVGSGGFGQVYKVRHVHWKTWLAIKCSPSLHVDDRERMELLEEAKKMEMAKFRYILPVYGICREPVGLVMEYMETGSLEKLLASEPLPWDLRFRIIHETAVGMNFLHCMAPPLLHLDLKPANILLDAHYHVKISDFGLAKCNGLSHSHDLSMDGLFGTIAYLPPERIREKSRLFDTKHDVYSFAIVIWGVLTQKKPFADEKNILHIMVKVVKGHRPELPPVCRARPRACSHLIRLMQRCWQGDPRVRPTFQGNGLNGELIRQVLAALLPVTGRWRSPGEGFRLESEVIIRVTCPLSSPQEITSETEDLCEKPDDEVKETAHDLDVKSPPEPRSEVVPARLKRASAPTFDNDYSLSELLSQLDSGVSQAVEGPEELSRSSSESKLPSSGSGKRLSGVSSVDSAFSSRGSLSLSFEREPSTSDLGTTDVQKKKLVDAIVSGDTSKLMKILQPQDVDLALDSGASLLHLAVEAGQEECAKWLLLNNANPNLSNRRGSTPLHMAVERRVRGVVELLLARKISVNAKDEDQWTALHFAAQNGDESSTRLLLEKNASVNEVDFEGRTPMHVACQHGQENIVRILLRRGVDVSLQGKDAWLPLHYAAWQGHLPIVKLLAKQPGVSVNAQTLDGRTPLHLAAQRGHYRVARILIDLCSDVNVCSLLAQTPLHVAAETGHTSTARLLLHRGAGKEAMTSDGYTALHLAARNGHLATVKLLVEEKADVLARGPLNQTALHLAAAHGHSEVVEELVSADVIDLFDEQGLSALHLAAQGRHAQTVETLLRHGAHINLQSLKFQGGHGPAATLLRRSKT

How the values were obtained:
[1] = target: T1, A20 fused to the GAL4 DNA-binding domain (human); assay: two-hybrid; mammalian two-hybrid (Matchmaker, Clontech) in RKO cells; GAL4 DNA-binding domain and VP16 activation domain fusions; secreted alkaline phosphatase reporter
[2] = target: T2, endogenous A20 (human (endogenous in RKO)); assay: co-IP; endogenous proteins; wild-type RKO cells stimulated with wnt3a for 4 hours; A20 immunoprecipitated with antibody B5 or 4H16, blot for RIPK4; lysis in 1% Triton X-100, 150mM NaCl, 10% Glycerol
[3] = target: T2, endogenous A20 (human (endogenous in RKO)); assay: condition: only cells stimulated with TNF (10ng/mL, 4 hours) and not with wnt3a; co-IP; endogenous proteins; wild-type RKO cells stimulated with TNF for 4 hours; A20 immunoprecipitated with antibody B5 or 4H16, blot for RIPK4; lysis in 1% Triton X-100, 150mM NaCl, 10% Glycerol

| Binder | binding [1] | binding [2] | binding [3] |
| --- | --- | --- | --- |
| B1 | binds |  |  |
| B2 |  | binds | no binding |
